# From the supplement of paper PMC8728848
# The list shows a part of the results.
# B1: PX9937I-bfa-538-26-538 (Bacteroides fragilis) (protein)
# chain: DKLDLSPIDYYGSGSYWKTEAQATAYIDGIHKHLRDAAWQHTITFGELRGGRFITGASSDGMGVSNGDIILQNFDETHTGVSKFGDLFGRITNLNLFIARVTDATYLSDEMKNFYLGEVYGLRAFYYFDLYRIYGGVPLRLTADVVEGVIDPNKLYMARSTPKEVMTQIKSDLNKSMEYFGNMNDFDPYKRGKKVYWSKAATECLMGEVYLWTSKVTTGDDVANPADLTIAKTHLESVLNNYNLKMLDDFSQVFNAKNKANDEIIFAIRFLEGEATNSNGTFTYNVGTGSTKNRYQANGEVFGDALDIQNTGNQTYEYNKAVYQNFDDADTRKEATFIASYNKDGKTGELSLYGTHVRKNIGYVNAQGARVYCGDYIFYRLPWVYLTLAEIANMEGDNAAVAKYINLVRKRAYGNAWDETLYAYPETADFTTNELAILHEKDKEFIQEGQRWWDLRRMTLTKGGTPLVFCKEGSLLGDAPILNKSTEAHKLLWPIEKTMLNKDPALEQTPGYK
# Columns and labels:
# Assay in all cases: glycan array binding signal (z-score within array); higher = stronger binding
# Conditions in all cases: glycan notation: IUPAC condensed, linker removed
# [1] = target: Neu5Ac(a2-6)Gal(b1-3)GlcNAc(b1-3)[Gal(b1-4)GlcNAc(b1-6)]Gal(b1-4)Glc
# Outline: (§1)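 The Consortium for Functional Glycomics database supplied 3228 glycan arrays, of which those lacking an available protein sequence were dropped. The binding signal, a within-array Z-score, was averaged across arrays of the same protein sequence and across linkers. Negative scores can be read as non-binding.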
# Neu5Ac(a2-6)Gal(b1-4)Glc = target: Neu5Ac(a2-6)Gal(b1-4)Glc
# Outline: as §1
# [2] = target: Neu5Ac(a2-6)Gal(b1-4)GlcNAc
# Outline: as §1
# [3] = target: Neu5Ac(a2-6)Gal(b1-4)GlcNAc(b1-2)Man
# Outline: as §1
# [4] = target: Neu5Ac(a2-6)Gal(b1-4)GlcNAc(b1-2)Man(a1-3)Man(b1-4)GlcNAc(b1-4)GlcNAc
# Outline: as §1
# [5] = target: Neu5Ac(a2-6)Gal(b1-4)GlcNAc(b1-2)Man(a1-3)[Gal(b1-4)GlcNAc(b1-2)Man(a1-6)]Man(b1-4)GlcNAc(b1-4)GlcNAc
# Outline: as §1
# [6] = target: Neu5Ac(a2-6)Gal(b1-4)GlcNAc(b1-2)Man(a1-3)[GlcNAc(b1-2)Man(a1-6)]Man(b1-4)GlcNAc(b1-4)GlcNAc
# Outline: as §1
# [7] = target: Neu5Ac(a2-6)Gal(b1-4)GlcNAc(b1-2)Man(a1-3)[GlcNAc(b1-4)][Neu5Ac(a2-6)Gal(b1-4)GlcNAc(b1-2)Man(a1-6)]Man(b1-4)GlcNAc(b1-4)GlcNAc
# Outline: as §1
# [8] = target: Neu5Ac(a2-6)Gal(b1-4)GlcNAc(b1-2)Man(a1-3)[Man(a1-6)]Man(b1-4)GlcNAc(b1-4)GlcNAc
# Outline: as §1
# [9] = target: Neu5Ac(a2-6)Gal(b1-4)GlcNAc(b1-2)Man(a1-3)[Neu5Ac(a2-3)Gal(b1-4)GlcNAc(b1-2)Man(a1-6)]Man(b1-4)GlcNAc(b1-4)GlcNAc
# Outline: as §1
# [10] = target: Neu5Ac(a2-6)Gal(b1-4)GlcNAc(b1-2)Man(a1-3)[Neu5Ac(a2-6)Gal(b1-4)GlcNAc(b1-2)Man(a1-6)]Man(b1-4)GlcNAc(b1-4)GlcNAc
# Outline: as §1
# [11] = target: Neu5Ac(a2-6)Gal(b1-4)GlcNAc(b1-2)Man(a1-3)[Neu5Ac(a2-6)Gal(b1-4)GlcNAc(b1-2)Man(a1-6)]Man(b1-4)GlcNAc(b1-4)[Fuc(a1-6)]GlcNAc
# Outline: as §1
# [12] = target: Neu5Ac(a2-6)Gal(b1-4)GlcNAc(b1-2)Man(a1-6)Man(b1-4)GlcNAc(b1-4)GlcNAc
# Outline: as §1
# [13] = target: Neu5Ac(a2-6)Gal(b1-4)GlcNAc(b1-2)Man(a1-6)[Gal(b1-4)GlcNAc(b1-2)Man(a1-3)]Man(b1-4)GlcNAc(b1-4)GlcNAc
# Outline: as §1
# [14] = target: Neu5Ac(a2-6)Gal(b1-4)GlcNAc(b1-2)Man(a1-6)[GlcNAc(b1-2)Man(a1-3)]Man(b1-4)GlcNAc(b1-4)GlcNAc
# Outline: as §1
# [15] = target: Neu5Ac(a2-6)Gal(b1-4)GlcNAc(b1-2)Man(a1-6)[Man(a1-3)]Man(b1-4)GlcNAc(b1-4)GlcNAc
# Outline: as §1
# [16] = target: Neu5Ac(a2-6)Gal(b1-4)GlcNAc(b1-2)[Neu5Ac(a2-6)Gal(b1-4)GlcNAc(b1-4)]Man(a1-3)[GlcNAc(b1-4)][Neu5Ac(a2-6)Gal(b1-4)GlcNAc(b1-2)[Neu5Ac(a2-6)Gal(b1-4)GlcNAc(b1-6)]Man(a1-6)]Man(b1-4)GlcNAc(b1-4)GlcNAc
# Outline: as §1
# [17] = target: Neu5Ac(a2-6)Gal(b1-4)GlcNAc(b1-2)[Neu5Ac(a2-6)Gal(b1-4)GlcNAc(b1-4)]Man(a1-3)[GlcNAc(b1-4)][Neu5Ac(a2-6)Gal(b1-4)GlcNAc(b1-4)Man(a1-6)]Man(b1-4)GlcNAc(b1-4)GlcNAc
# Outline: as §1
# [18] = target: Neu5Ac(a2-6)Gal(b1-4)GlcNAc(b1-2)[Neu5Ac(a2-6)Gal(b1-4)GlcNAc(b1-6)]Man(a1-6)[Neu5Ac(a2-6)Gal(b1-4)GlcNAc(b1-2)Man(a1-3)][GlcNAc(b1-4)]Man(b1-4)GlcNAc(b1-4)GlcNAc
# Outline: as §1
# [19] = target: Neu5Ac(a2-6)Gal(b1-4)GlcNAc(b1-3)Gal(b1-3)GlcNAc
# Outline: as §1
# [20] = target: Neu5Ac(a2-6)Gal(b1-4)GlcNAc(b1-3)Gal(b1-4)GlcNAc
# Outline: as §1
# [21] = target: Neu5Ac(a2-6)Gal(b1-4)GlcNAc(b1-3)Gal(b1-4)GlcNAc(b1-2)Man(a1-3)[Neu5Ac(a2-6)Gal(b1-4)GlcNAc(b1-3)Gal(b1-4)GlcNAc(b1-2)Man(a1-6)]GalNAc
# Outline: as §1
# [22] = target: Neu5Ac(a2-6)Gal(b1-4)GlcNAc(b1-3)Gal(b1-4)GlcNAc(b1-3)Gal(b1-4)GlcNAc
# Outline: as §1
# [23] = target: Neu5Ac(a2-6)Gal(b1-4)GlcNAc(b1-3)Gal(b1-4)GlcNAc(b1-3)Gal(b1-4)GlcNAc(b1-2)Man(a1-3)[Neu5Ac(a2-6)Gal(b1-4)GlcNAc(b1-3)Gal(b1-4)GlcNAc(b1-3)Gal(b1-4)GlcNAc(b1-2)Man(a1-6)]GalNAc
# Outline: as §1
# [24] = target: Neu5Ac(a2-6)Gal(b1-4)GlcNAc(b1-3)Gal(b1-4)GlcNAc(b1-3)GalNAc
# Outline: as §1
# [25] = target: Neu5Ac(a2-6)Gal(b1-4)GlcNAc(b1-3)Gal(b1-4)GlcNAc(b1-3)[Neu5Ac(a2-6)Gal(b1-4)GlcNAc(b1-3)Gal(b1-4)GlcNAc(b1-6)]GalNAc
# Outline: as §1
# [26] = target: Neu5Ac(a2-6)Gal(b1-4)GlcNAc(b1-3)Gal(b1-4)GlcNAc(b1-6)[Gal(b1-3)]GalNAc
# Outline: as §1
# [27] = target: Neu5Ac(a2-6)Gal(b1-4)GlcNAc(b1-3)Gal(b1-4)[Fuc(a1-3)]GlcNAc(b1-3)Gal(b1-4)[Fuc(a1-3)]GlcNAc
# Outline: as §1
# [28] = target: Neu5Ac(a2-6)Gal(b1-4)GlcNAc(b1-3)GalNAc
# Outline: as §1
# [29] = target: Neu5Ac(a2-6)Gal(b1-4)GlcNAc(b1-3)[Neu5Ac(a2-6)Gal(b1-4)GlcNAc(b1-6)]GalNAc
# Outline: as §1
# [30] = target: Neu5Ac(a2-6)Gal(b1-4)GlcNAc(b1-6)GalNAc
# Outline: as §1
# [31] = target: Neu5Ac(a2-6)Gal(b1-4)GlcNAc(b1-6)[Gal(b1-3)GlcNAc(b1-3)]Gal(b1-4)Glc
# Outline: as §1
# [32] = target: Neu5Ac(a2-6)Gal(b1-4)GlcNAc(b1-6)[Gal(b1-3)]GalNAc
# Outline: as §1
# [33] = target: Neu5Ac(a2-6)Gal(b1-4)GlcNAc6S
# Outline: as §1
# Neu5Ac(a2-6)GalNAc = target: Neu5Ac(a2-6)GalNAc
# Outline: as §1
# [34] = target: Neu5Ac(a2-6)GalNAc(b1-4)GlcNAc
# Outline: as §1
# [35] = target: Neu5Ac(a2-6)GalNAc(b1-4)GlcNAc6S
# Outline: as §1
# [36] = target: Neu5Ac(a2-6)GlcNAc(b1-4)GlcNAc
# Outline: as §1
binder,measurement,setting,value
B1,glycan array binding signal (z-score),[1],2.05
same,glycan array binding signal (z-score),Neu5Ac(a2-6)Gal(b1-4)Glc,-0.274
same,glycan array binding signal (z-score),[2],-0.419
same,glycan array binding signal (z-score),[3],-1.26
same,glycan array binding signal (z-score),[4],3.63
same,glycan array binding signal (z-score),[5],-0.747
same,glycan array binding signal (z-score),[6],-0.591
same,glycan array binding signal (z-score),[7],-0.118
same,glycan array binding signal (z-score),[8],-0.455
same,glycan array binding signal (z-score),[9],-0.093
same,glycan array binding signal (z-score),[10],0.045
same,glycan array binding signal (z-score),[11],-0.233
same,glycan array binding signal (z-score),[12],-0.458
same,glycan array binding signal (z-score),[13],0.133
same,glycan array binding signal (z-score),[14],-0.553
same,glycan array binding signal (z-score),[15],-0.345
same,glycan array binding signal (z-score),[16],-0.821
same,glycan array binding signal (z-score),[17],-0.258
same,glycan array binding signal (z-score),[18],-0.325
same,glycan array binding signal (z-score),[19],0.352
same,glycan array binding signal (z-score),[20],0.057
same,glycan array binding signal (z-score),[21],-0.296
same,glycan array binding signal (z-score),[22],0.938
same,glycan array binding signal (z-score),[23],1.61
same,glycan array binding signal (z-score),[24],-0.147
same,glycan array binding signal (z-score),[25],-0.643
same,glycan array binding signal (z-score),[26],-0.728
same,glycan array binding signal (z-score),[27],0.356
same,glycan array binding signal (z-score),[28],-1.06
same,glycan array binding signal (z-score),[29],-0.593
same,glycan array binding signal (z-score),[30],-0.056
same,glycan array binding signal (z-score),[31],-0.63
same,glycan array binding signal (z-score),[32],0.235
same,glycan array binding signal (z-score),[33],-0.184
same,glycan array binding signal (z-score),Neu5Ac(a2-6)GalNAc,-0.586
same,glycan array binding signal (z-score),[34],-0.277
same,glycan array binding signal (z-score),[35],-0.9
same,glycan array binding signal (z-score),[36],-0.188

# Part of the list above, tab-delimited:
binder	measurement	setting	value
B1	glycan array binding signal (z-score)	[28]	-1.06
same	glycan array binding signal (z-score)	[35]	-0.9
